Measurements taken from article doi:10.1101/2023.01.27.525873.
Results are given in words; binding and its absence hold for the method and conditions named. In cells and extracts the contact can be indirect. Some entries that bind do so weakly or less than the wild type.

Sequences of proteins named here, by UniProt entry; tags and fusion partners are left off. A change or cut given only in a name is not applied to a line headed by its entry. A line that says so, or that is headed by a name, gives the form on record, which may keep a tag or linker. Residues count along the entry.
HA-STIM2.3 fused to YFPc (Q9P246, form named): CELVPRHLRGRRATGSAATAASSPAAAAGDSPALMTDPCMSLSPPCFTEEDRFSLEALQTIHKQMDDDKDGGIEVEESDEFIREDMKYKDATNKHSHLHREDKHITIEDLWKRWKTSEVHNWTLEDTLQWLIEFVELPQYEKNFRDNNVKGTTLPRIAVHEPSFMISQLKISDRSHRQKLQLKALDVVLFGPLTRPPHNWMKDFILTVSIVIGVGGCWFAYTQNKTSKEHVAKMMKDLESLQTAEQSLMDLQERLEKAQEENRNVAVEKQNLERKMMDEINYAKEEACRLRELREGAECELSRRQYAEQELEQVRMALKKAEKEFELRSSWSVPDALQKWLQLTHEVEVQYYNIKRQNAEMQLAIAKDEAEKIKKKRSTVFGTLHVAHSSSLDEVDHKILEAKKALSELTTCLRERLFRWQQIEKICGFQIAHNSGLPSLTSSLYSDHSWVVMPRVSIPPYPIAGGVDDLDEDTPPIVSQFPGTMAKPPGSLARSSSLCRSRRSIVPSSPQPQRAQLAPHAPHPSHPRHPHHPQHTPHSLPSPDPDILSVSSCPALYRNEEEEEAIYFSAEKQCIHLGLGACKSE
UniProt Q96SN7: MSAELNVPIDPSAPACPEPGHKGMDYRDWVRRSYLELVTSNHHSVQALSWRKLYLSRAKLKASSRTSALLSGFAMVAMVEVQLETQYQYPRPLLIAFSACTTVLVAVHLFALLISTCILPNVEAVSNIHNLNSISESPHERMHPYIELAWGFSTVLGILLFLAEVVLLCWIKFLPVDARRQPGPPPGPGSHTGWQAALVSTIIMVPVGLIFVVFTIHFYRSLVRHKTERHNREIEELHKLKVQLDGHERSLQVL
UniProt Q13586, residues 23-685: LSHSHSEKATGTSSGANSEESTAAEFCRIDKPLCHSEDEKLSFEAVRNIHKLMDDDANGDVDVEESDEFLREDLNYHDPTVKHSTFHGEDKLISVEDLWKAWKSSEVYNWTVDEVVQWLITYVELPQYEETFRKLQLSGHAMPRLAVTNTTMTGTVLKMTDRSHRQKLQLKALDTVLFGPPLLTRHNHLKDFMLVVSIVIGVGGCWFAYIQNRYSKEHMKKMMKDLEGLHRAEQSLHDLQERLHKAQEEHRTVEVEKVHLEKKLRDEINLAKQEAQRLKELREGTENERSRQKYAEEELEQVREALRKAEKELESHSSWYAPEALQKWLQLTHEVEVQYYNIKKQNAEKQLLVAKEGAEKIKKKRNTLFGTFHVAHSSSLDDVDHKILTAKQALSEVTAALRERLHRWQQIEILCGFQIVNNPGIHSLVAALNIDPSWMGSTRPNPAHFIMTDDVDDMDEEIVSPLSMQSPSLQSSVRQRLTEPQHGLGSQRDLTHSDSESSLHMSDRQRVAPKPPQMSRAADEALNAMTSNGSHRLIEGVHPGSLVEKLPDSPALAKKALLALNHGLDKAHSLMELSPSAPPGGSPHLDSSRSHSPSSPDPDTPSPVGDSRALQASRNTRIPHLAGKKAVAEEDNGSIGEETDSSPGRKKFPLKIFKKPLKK

Molecular target: HA-STIM2.3 fused to YFPc (human) (UniProt Q9P246)
Assay: split reporter

Row | binding | Substance
1 | binds | ORAI2 fused to YFPn (from UniProt Q96SN7 1-254)
2 | binds | STIM1 fused to YFPn (from UniProt Q13586 23-685)
